Assay results as given in US20090305888A1, “Materials and Methods for Providing Oxygen to Improve Seed Germination and Plant Growth” (priority 2006, published 2009).

Key:
[1] = test system: corn plants; assay: Oxygen level of different oxygen sources in pot experiments (1800 ml); conditions: for oxygen level in culture pots: 1800 ml 200% nutrient solution, 2 ml 3% hydrogen peroxide or 2 grams of solid, FIGS. 19a and 19b
[2] = test system: corn plant at three-leaf stage; assay: Depletion of oxygen by one corn plant in 50 ml solution; conditions: 50 ml 200% strength nutrient solution

SMILES	oxygen level in culture pots [1]	maintenance of oxygen release ([2]; FIGS. 14 and 15)	oxygen level compared with magnesium peroxide ([2]; FIGS. 14 and 15)	oxygen level compared with magnesium peroxide ([2]; FIGS. 14 and 15, listed as Calcium peroxide)	day of single peak of oxygen level ([1]; 2 grams of calcium peroxide per 1800 ml pot, FIG. 19b) [days]
O=C([O-])[O-].O=C([O-])[O-].OO.OO.OO.[Na+].[Na+].[Na+].[Na+] [sodium percarbonate]	much higher				
[Ca+2].[O-][O-] [calcium peroxide]	double the oxygen level of aerating treatment	could maintain oxygen release for much longer periods of time	much higher level of oxygen release than magnesium peroxide	much higher level of oxygen than magnesium peroxide	2
[Mg+2].[O-][O-] [magnesium peroxide]	consistent and much higher than the hypoxic treatment and even higher than the treatment with hydrogen peroxide	could maintain oxygen release for much longer periods of time			
OO [hydrogen peroxide]	very fluctuant				
